No constants are given. Whether binding was seen depends on the method and setting. Some binding calls cover weakened binding; strength is not graded here.

Amino acid sequences for entries named in this document (tags omitted). Residues count along the entry.
UniProt P01556, residues 22-124: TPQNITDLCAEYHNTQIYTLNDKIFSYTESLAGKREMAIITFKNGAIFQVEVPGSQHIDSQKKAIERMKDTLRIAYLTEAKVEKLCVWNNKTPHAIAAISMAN

The values that follow come from US20130122039A1.

The test addresses recombinant CT-B secreted by Peru-15(pCTB) (Vibrio cholerae strain C6709) (UniProt P01556). Nature of the test: SDS-PAGE of concentrated supernate with and without heating.

As for “recombinant CT-B secreted by Peru-15(pCTB) (from UniProt P01556 22-124)”, the binding result is listed as “binds”.
